Common to all, as to assay: EMSA
For orientation: Mobility shift assays separate free from complexed probe on a gel.

For data set [1], the target named is UAF1 (WT) (human) (UniProt Q8TAF3). The note with it: 100-400 nM protein, 10 nM DNA, EMSA with 10 nM 32P-labeled DNA, binding buffer, recombinant protein, protein details: Strep II.
Data set [2] deals with UAF1 11A R30A,R50A,K117A,T161A,K168A,S230A,R272A,R274A,K275A,K318A,I363A (human) (UniProt Q8TAF3). The note with it: 200-800 nM protein, stated deficient, EMSA with 10 nM 32P-labeled DNA, binding buffer, recombinant protein, protein details: Strep II.
In data set [3] the target is UAF1 3A R30A,R50A,K168A (human) (UniProt Q8TAF3). The note with it: 200-800 nM protein, stated deficient, EMSA with 10 nM 32P-labeled DNA, binding buffer, recombinant protein, protein details: Strep II.
For data set [4], the target named is UAF1 436X (human) (UniProt Q8TAF3). The settings on record: 100-400 nM protein, as avid as full length, EMSA with 10 nM 32P-labeled DNA, binding buffer, recombinant protein, residues 1-436.
The target in data set [5] is T1, UAF1 SLD (human) (UniProt Q8TAF3).
T1 sequence (looked up): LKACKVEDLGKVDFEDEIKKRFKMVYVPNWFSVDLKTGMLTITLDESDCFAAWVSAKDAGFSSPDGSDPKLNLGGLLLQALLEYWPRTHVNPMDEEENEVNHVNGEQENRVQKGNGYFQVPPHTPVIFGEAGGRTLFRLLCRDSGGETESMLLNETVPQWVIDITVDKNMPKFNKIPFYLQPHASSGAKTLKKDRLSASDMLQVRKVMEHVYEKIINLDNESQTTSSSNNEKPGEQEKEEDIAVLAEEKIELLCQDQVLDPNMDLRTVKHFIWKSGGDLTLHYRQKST
The note with it: 100-400 nM protein, EMSA with 10 nM 32P-labeled DNA, binding buffer, recombinant protein, residues 390-677.

Setting [6] is: label: 32P on P1, single-stranded DNA.
[7] abbreviates: label: 32P on D3, folded or branched DNA.

For part of these data: Negatives hold for the conditions tested. For part of these data: At least one verdict rests on a figure or table, not on a statement of the authors. For part of these data: Tags and fusion partners may be left off the protein sequences shown. For part of these data: The comparison behind a weaker result is the experiment's own reference, which may not be listed here. For part of these data: For at least one entry, the source does not settle the construct or the ends of the probe.

Regarding “TTATATCCTTTACTTTGAATTCTATGTTTAACCTTTTACTTATTTTGTATTAGCCGGATCCTTATTTCAATTATGTTCAT [ssDNA P1]”, the binding result in data set [1] (setting [6]) is on record as “binds”; in data set [2] (setting [6]), “binds more weakly”; in data set [3] (setting [6]) it was “binds more weakly”; in data set [4] (setting [6]), “binds”; in data set [5] (setting [6]) it was “no binding”.

For “TTATATCCTTTACTTTGAATTCTATGTTTAACCTTTTACTTATTTTGTATTAGCCGGATCCTTATTTCAATTATGTTCAT (double strand) [dsDNA P1/P2]”, the binding result in data set [1] (label: 32P on P1) is reported as “binds”; in data set [2] (label: 32P on P1), “binds more weakly”; in data set [3] (label: 32P on P1), “binds more weakly”; in data set [4] (label: 32P on P1), “binds”; in data set [5] (label: 32P on P1), “no binding”.

In the case of “CATTGCATATTTAAAACATGTTGGAAGGCTCGATGCATGCTGATAGCCTACTAGTGCTGCTGGCTTTCAAATGACCTCTTATCAAGTGAC / GTCACTTGATAAGAGGTCATTTGAATTCATGGCTTAGAGCTTAATTGCTGAATCTGGTGCTGGGATCCAACATGTTTTAAATATGCAATG / CTGCTACGATGCTAGTCGTAGCTCGGCAGTCGTAGCAGGTTCCCAGCACCAGATTCAGCAATTAAGCTCTAAGCCATGAA [D-loop D1/D2/D3]”, the binding result in data set [1] (setting [7]) is listed as “binds”; in data set [2] (setting [7]) it was “binds more weakly”; in data set [3] (setting [7]) it was “binds more weakly”; in data set [4] (setting [7]), “binds”; in data set [5] (setting [7]), “no binding”.

Source of the values: article PMC6599204.
